# PubChem BioAssay AID743121, NCATS | 2013
# Assay: 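Knock-downs that sensitise breast cancer cells to camptothecin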 (primary screen)
# Cell system: MDA-MB-231 cells, a human breast cancer line
# Reagents: single siRNA against human genes, 20 nM siRNA (0.8 pmol per well)
# Time to read-out: 120 h (drug added 48 h after transfection, read 72 h later)
# Challenge: camptothecin 20 nM (about EC30) for 72 h; vehicle 0.1% DMSO in parallel plates
# Read-out: 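Cell viability by ATP luminescence (CellTiter-Glo) as % of non-targeting siRNA wells, and the log2 ratio of viability without drug over viability with camptothecin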
# Direction: log2 vehicle/camptothecin viability: higher = stronger sensitisation to camptothecin
# Hit rule: 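Each gene scored by redundant siRNA activity (RSA) over its individual siRNA ratios; a gene is called active at p < 0.001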
# This is one part, drawn at random, of about 26,000 deposited reagents. Over the whole deposit, 167 (0.63%) got an active call. 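Calls are per gene from RSA p-values that are not deposited; an individual active-marked siRNA can sensitise only weakly.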 The numbers tell different reagents against one gene apart. Not all columns of the deposit are shown.
gene symbol,reagent no.,log2 vehicle/camptothecin viability,Outcome
CCS (copper chaperone for superoxide dismutase),1,-0.138,inactive
CCS (copper chaperone for superoxide dismutase),2,0.109,inactive
CCS (copper chaperone for superoxide dismutase),3,-0.358,inactive
CCS (copper chaperone for superoxide dismutase),4,-0.243,inactive
NEK3 (NIMA related kinase 3),1,-0.632,inactive
NEK3 (NIMA related kinase 3),2,-0.369,inactive
NEK3 (NIMA related kinase 3),3,-0.223,inactive
NEK3 (NIMA related kinase 3),4,-0.267,inactive
KIF4A (kinesin family member 4A),1,0.0896,inactive
KIF4A (kinesin family member 4A),2,-0.0847,inactive
KIF4A (kinesin family member 4A),3,0.168,inactive
KIF4A (kinesin family member 4A),4,0.0733,inactive
RELN (reelin),1,0.173,inactive
RELN (reelin),2,-0.278,inactive
RELN (reelin),3,-0.318,inactive
RELN (reelin),4,0.623,inactive
CTRB1 (chymotrypsinogen B1),1,-0.0491,inactive
CTRB1 (chymotrypsinogen B1),2,-0.0829,inactive
CTRB1 (chymotrypsinogen B1),3,-0.0375,inactive
CTRB1 (chymotrypsinogen B1),4,-0.072,inactive
IL23A (interleukin 23 subunit alpha),1,0.0668,inactive
IL23A (interleukin 23 subunit alpha),2,-0.107,inactive
IL23A (interleukin 23 subunit alpha),3,-0.105,inactive
IL23A (interleukin 23 subunit alpha),4,-0.284,inactive
FOXL2 (forkhead box L2),1,0.736,inactive
FOXL2 (forkhead box L2),2,-0.164,inactive
FOXL2 (forkhead box L2),3,-0.499,inactive
FOXL2 (forkhead box L2),4,-0.202,inactive
